Measured values taken from patent US20060106038A1, “Methods for treating and/or preventing aberrant proliferation of hematopoietic cells” (ICOS CORPORATION, priority 2004, published 2006).
Like-named read-outs stand apart in the source and are kept apart here. At least one structure is not confirmed: it was looked up by name or label, or the drawing left a doubt.

Key:
class I PI3Ks = conditions: cited from earlier work
AML cells = test: Apoptosis assay, Annexin-V-PE FACS, AML cells; format: cell-based, human; conditions: PI3K+ leukemic blast cells, 24 h; LY294002 25 μM, IC87114 1 μM, rapamycin 50 ng/ml
[1] = tested on: Akt phosphorylation in AML cells; test: Western blot of Akt phosphorylation (Ser473) in AML cells; format: cell-based, human; conditions: AML cells (PI3K-positive samples), serum-free 4 h, inhibitor 30 min; LY294002 25 μM, PI3Kδ selective inhibitor 10 μM
[2] = tested on: FOXO3a phosphorylation in AML cells; test: Western blot of FOXO3a phosphorylation (Thr 32) in AML cells; format: cell-based, human; conditions: AML cells (PI3K-positive samples), serum-free 4 h, inhibitor 30 min; LY294002 25 μM, PI3Kδ selective inhibitor 10 μM
CD34+ cord blood cells = test: Cell proliferation assay, [3H]-Thymidine incorporation, normal CD34+ cord blood cells; format: cell-based, human; conditions: SCF, FLT3-L and thrombopoietin, 48 h, LY294002 25 μM, IC87114 10 μM

COC[C@H]1OC(=O)c2coc3c2[C@@]1(C)C1=C(C3=O)[C@@H]2CCC(=O)[C@@]2(C)C[C@H]1OC(C)=O [wortmannin]
IC50 (class I PI3Ks; read-out: IC50 against each of the various class I PI3Ks): 1 to 10 nM

CO[C@H]1C[C@@H]2CC[C@@H](C)[C@@](O)(O2)C(=O)C(=O)N2CCCC[C@H]2C(=O)O[C@H]([C@H](C)C[C@@H]2CC[C@@H](O)[C@H](OC)C2)CC(=O)[C@H](C)/C=C(\C)[C@@H](O)[C@@H](OC)C(=O)[C@H](C)C[C@H](C)/C=C/C=C/C=C/1C [rapamycin]
induction of apoptosis (Annexin-V-PE positive cells) (AML cells): did not induce apoptosis

O=c1cc(N2CCOCC2)oc2c(-c3ccccc3)cccc12 [LY294002]
phosphorylation of Akt [1]: completely abolished | phosphorylation of FOXO3a [2]: completely abolished | proliferation of normal CD34+ progenitors (CD34+ cord blood cells): completely blocked | induction of apoptosis (Annexin-V-PE positive cells) (AML cells): induced apoptosis | IC50 (class I PI3Ks; read-out: IC50 against each of these PI3Ks): ~1000 nM
